From US20160311918A1, “Anti-Ron Monoclonal Antibodies as a Cytotoxic Drug Delivery System for Targeted Cancer Therapy” (TEXAS TECH UNIVERSITY SYSTEM, priority 2013, published 2016)
These are yes or no findings as the source states them, for the method shown. Some entries that bind do so weakly or less than the wild type.

Protein sequences, listed by entry. Tags and fused reporters are not part of them. Residues count along the entry.
UniProt Q04912, residues 25-1400: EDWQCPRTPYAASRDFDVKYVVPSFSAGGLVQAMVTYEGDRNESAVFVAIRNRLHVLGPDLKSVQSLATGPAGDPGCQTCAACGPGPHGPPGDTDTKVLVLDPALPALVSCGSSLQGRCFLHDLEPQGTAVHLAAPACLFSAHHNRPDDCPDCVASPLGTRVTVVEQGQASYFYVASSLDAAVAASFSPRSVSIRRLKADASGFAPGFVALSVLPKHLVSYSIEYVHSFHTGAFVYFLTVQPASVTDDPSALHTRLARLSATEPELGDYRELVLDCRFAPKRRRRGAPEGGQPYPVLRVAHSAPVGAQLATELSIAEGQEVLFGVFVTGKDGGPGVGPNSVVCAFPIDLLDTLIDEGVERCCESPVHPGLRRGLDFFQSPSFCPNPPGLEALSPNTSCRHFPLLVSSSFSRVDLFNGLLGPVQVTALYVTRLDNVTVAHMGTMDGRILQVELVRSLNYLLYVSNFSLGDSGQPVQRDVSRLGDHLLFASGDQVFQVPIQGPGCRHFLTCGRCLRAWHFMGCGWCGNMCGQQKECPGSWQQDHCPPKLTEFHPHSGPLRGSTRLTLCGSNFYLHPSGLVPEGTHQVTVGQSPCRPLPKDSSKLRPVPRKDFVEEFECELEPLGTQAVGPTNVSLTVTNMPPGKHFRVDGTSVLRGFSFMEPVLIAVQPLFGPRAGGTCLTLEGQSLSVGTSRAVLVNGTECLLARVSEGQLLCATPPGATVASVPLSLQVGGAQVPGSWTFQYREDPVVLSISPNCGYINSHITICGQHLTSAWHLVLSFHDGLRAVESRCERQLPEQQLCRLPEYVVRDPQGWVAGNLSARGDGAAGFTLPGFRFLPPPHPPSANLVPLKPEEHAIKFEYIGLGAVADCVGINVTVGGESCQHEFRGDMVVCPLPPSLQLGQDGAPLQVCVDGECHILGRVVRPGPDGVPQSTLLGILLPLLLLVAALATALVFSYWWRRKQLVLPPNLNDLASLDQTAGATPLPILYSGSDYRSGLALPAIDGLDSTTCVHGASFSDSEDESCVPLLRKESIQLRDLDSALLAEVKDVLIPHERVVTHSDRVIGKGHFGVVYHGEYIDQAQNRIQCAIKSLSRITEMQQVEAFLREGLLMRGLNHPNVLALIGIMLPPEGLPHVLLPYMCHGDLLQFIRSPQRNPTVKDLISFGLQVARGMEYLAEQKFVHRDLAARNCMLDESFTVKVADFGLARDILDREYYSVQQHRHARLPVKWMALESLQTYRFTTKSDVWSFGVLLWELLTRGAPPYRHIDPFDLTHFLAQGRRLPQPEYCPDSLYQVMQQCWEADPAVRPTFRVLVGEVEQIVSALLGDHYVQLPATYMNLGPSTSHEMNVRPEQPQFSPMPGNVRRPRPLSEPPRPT

Key:
[1] = molecular target: human RON receptor tyrosine kinase (recepteur d'origine nantais) (human) (UniProt Q04912); test: receptor binding studies
[2] = molecular target: human RON receptor tyrosine kinase (recepteur d'origine nantais) (human) (UniProt Q04912); test: direct binding, ELISA, IHC, Western blotting, flow cytometry

B1: mouse monoclonal antibody Zt/f2 specific to human RON (antibody, V domains shown)
VH: QVQLQQSGAELAKPGASVKMSCKASGYTFTSYWMHWVKQRPGQGLEWIGYINPSTGYIEYNQNFKDKATLTADKSSSTAYMQLSSLTSEDSAVYYCARSPSHYYGSRYGYFDVWGAGTTVTVSS
VL: QIVLSQSPAILSASPGEKVTMTCRASSSVSYMHWYQQKPGSSPKPWIYATSNLASGVPARFSGSGSGTSYSLTISRVEAEDAATYYCQQWSSNPRTFGGGTKLEIK
notes: Mouse IgG2a; also called anti-RON mAb Zt/f2
binding [1]: binds | binding [2]: binds
